Results are given in words; binding and its absence hold for the method and conditions named. Binding seen in cells or lysates may run through a third protein. Some binding calls cover weakened binding; strength is not graded here.
Target: GST-Coro1A (UniProt P31146)
Assay: pull-down; GST-Coro1A pull-down of endogenous PKCθ from mouse CD3+ T cells; seen both with and without CD3/CD28 stimulation; only the target purified

Amino acid sequences for entries named in this document (tags omitted).
UniProt P31146: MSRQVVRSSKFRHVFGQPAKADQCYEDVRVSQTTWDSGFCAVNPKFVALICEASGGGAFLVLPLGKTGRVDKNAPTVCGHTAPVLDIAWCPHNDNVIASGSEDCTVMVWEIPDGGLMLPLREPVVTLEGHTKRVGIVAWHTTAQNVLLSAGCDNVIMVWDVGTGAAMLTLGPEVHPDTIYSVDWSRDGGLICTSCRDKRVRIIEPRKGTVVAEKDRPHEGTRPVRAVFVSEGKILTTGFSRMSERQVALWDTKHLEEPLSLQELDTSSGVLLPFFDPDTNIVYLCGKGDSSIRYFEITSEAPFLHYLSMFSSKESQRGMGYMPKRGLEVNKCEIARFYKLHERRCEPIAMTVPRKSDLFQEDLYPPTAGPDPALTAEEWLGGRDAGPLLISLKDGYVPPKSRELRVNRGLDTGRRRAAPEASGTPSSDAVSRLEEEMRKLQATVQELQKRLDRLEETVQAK
UniProt Q02111: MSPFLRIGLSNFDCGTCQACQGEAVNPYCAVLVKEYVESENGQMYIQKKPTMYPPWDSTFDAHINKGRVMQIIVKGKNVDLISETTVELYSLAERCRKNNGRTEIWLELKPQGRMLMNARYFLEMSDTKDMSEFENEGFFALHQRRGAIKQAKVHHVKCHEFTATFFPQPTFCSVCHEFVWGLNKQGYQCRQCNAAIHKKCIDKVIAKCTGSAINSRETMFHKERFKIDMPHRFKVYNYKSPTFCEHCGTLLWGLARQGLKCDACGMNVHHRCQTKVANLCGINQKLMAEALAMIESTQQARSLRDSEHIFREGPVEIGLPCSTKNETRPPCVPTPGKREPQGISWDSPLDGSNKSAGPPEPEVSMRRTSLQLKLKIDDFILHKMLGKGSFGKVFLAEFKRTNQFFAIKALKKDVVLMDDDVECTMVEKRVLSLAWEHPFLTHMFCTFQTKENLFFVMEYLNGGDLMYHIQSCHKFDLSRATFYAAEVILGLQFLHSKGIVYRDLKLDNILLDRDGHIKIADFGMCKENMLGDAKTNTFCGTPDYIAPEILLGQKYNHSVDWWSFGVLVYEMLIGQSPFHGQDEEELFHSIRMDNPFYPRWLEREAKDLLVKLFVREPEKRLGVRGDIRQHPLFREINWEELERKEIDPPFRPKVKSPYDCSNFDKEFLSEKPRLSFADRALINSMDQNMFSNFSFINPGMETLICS

- binding: binds
Substance: PKCθ, endogenous in mouse CD3+ T cells (from UniProt Q02111 1-707) (enzyme)
